Assay results taken from patent US20090093618A1, “STREPTAVIDIN-BIOTIN-LINK ANTIBODY-HAPTEN SYSTEM” (The Regents OF THE UNIVERSITY OF CALIFORNA, priority 2006, published 2009).
“Also recorded” adds a separate entry of the source.

Test system: 2D12.5
Assay: Time-resolved terbium luminescence of Tb-DOTA bound to 2D12.5
Parameters: species or system mouse
Settings: 280 nm/UV excitation; relative to unbound Tb-DOTA

## O=C([O-])CN1CCN(CC(=O)[O-])CCN(CC(=O)[O-])CCN(CC(=O)[O-])CC1.[Tb+3] [Tb-DOTA]
  enhancement of green terbium luminescence (545 nm emission) on binding to 2D12.5: approximately four orders of magnitude; also recorded: marked, linear enhancement
